# Some of these results come from one statement about several compounds together.
# Test: pH change of produced water after treatment
# Type: physicochemical
# Conditions: produced water treated with organo-zirconium M8 or M9
substance,measurement,value
zirconium triethanolamine complex [M9],pH change of the water after treatment,less than 0.2
